Whole data set: some 33,000 sequences, median “E-score (-0.5 to 0.5)” near -0.0014, cut for the highest 2% near 0.25. The list shows a part of the results.
Biological target: T1, Cad1 (UniProt P24813)
T1 sequence: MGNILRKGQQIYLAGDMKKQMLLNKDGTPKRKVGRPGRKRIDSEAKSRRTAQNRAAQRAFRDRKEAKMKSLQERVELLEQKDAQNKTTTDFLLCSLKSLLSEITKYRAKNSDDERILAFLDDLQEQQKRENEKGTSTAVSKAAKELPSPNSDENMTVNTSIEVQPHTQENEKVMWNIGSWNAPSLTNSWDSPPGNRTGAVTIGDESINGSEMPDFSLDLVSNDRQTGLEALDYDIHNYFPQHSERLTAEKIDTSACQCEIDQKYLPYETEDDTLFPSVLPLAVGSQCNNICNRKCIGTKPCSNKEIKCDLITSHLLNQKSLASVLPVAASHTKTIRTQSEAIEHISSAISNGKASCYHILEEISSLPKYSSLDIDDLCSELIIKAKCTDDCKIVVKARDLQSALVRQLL
Assay: PBM E-score (8-mer binding enrichment) (E-score (-0.5 to 0.5)); higher = stronger / more preferred TF binding
Details: protein concentration: 100 nM; construct: GST-full length
Description: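 Universal 'all 10-mer' protein binding microarrays (Agilent AMADID 015681) probed with GST-tagged S. cerevisiae TFs (full-length or DBD) made by in vitro transcription/translation (PURExpress), about 100-200 nM. Bound TF was detected with fluorescent anti-GST. Each ungapped 8-mer (which stands for itself and its reverse complement) is scored by the PBM enrichment score (E-score), a modified Wilcoxon-Mann-Whitney statistic from -0.5 to +0.5, computed with the Universal PBM Analysis Suite. Scale: above 0.35 generally sequence-specific binding.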

Sequence | PBM E-score
CTACGCAA | -0.0871
AGTCTTAT | 0.0391
AGTTTACG | 0.0267
GTTGGTTA | 0.0706
AGCCACGA | -0.108
AGTGATGG | -0.0863
CACCTGGG | -0.211
AGGATAAC | 0.037
ATCGATAC | 0.165
ACTTAGTG | -0.142
AGGCCATA | -0.101
TAGAAAAA | -0.11
AACTATGA | -0.00365
GAACGTCC | 0.00372
CCATCGAC | 0.00288
ATGGTAAC | 0.185
ATAGGGAT | -0.0718
CACTGGAC | 0.124
GCGCCTGA | 0.181
AAGCACCG | -0.146
AGTTCATA | 0.101
CTTGCTTC | 0.0497

Sequence | PBM E-score
GCGAGGAC | -0.205
CGACGGAA | 0.0731
GTCACAAC | 0.0393
CCACACAC | 0.0882
CCCCTAGA | -0.17
AGAAATCA | 0.109
ACCGAGGC | -0.188
GACGGTCA | -0.121
GGTCTCGA | 0.061
ATGGAAAT | 0.0495
GGGATACA | -0.104
GGCAGCGA | -0.162
AACGCGCG | 0.282
CTCCGGAC | 0.00021
CGCTTCGA | 0.0454
CAGACGAA | 0.202
GGCCAGAA | 0.079
AAACCGCG | 0.271
CGAGCAAA | 0.0514
CCGAGATA | 0.181
CCTCGGCA | 0.0774
ACAACAAA | 0.029

Sequence | PBM E-score
CTCTGGAA | -0.0601
ACTACTTA | 0.0237
TCCCGGGA | 0.248
CTCTTATA | 0.158
AGATGCAG | 0.117
AATTATCT | 0.282
ATACTTTG | 0.0521
GGTCGTGA | -0.0496
GAGAACCC | -0.184
TCAATGGA | 0.0279
ACCTGACC | -0.238
AAAAACAC | 0.173
GACCCCAC | -0.196
CAGTGCAC | 0.0573
AAGAACAC | 0.163
AAGGCTGA | -0.00348
AAATTGTG | -0.144
ACCGAACT | 0.189
CTGGTTTC | 0.0789
AGCACAAC | 0.116
ATCGCTCA | -0.0243
ATTCGATG | 0.0869

Sequence | PBM E-score
CCGACCGG | -0.14
CGATGCAA | -0.104
ATGACATA | 0.267
CATAGGTA | -0.0378
ATTTGAGC | -0.0304
ACAGCCCA | 0.0465
CAAGACGA | -0.0139
CTGGCGGC | -0.0548
ACGTTGAT | 0.148
AGTGTGCA | 0.0633
GTAGCGTA | 0.00889
AGGCCACA | -0.177
ATCCCTCG | 0.093
AGGTAATA | 0.225
GTGGCCCA | -0.00188
CTGCATAA | 0.0884
AAAGCCTT | -0.142
ATTCTTCG | -0.00874
CGTGATAA | 0.137
GAGGCCAC | -0.048
